# In patent US20210107958A1, “GLYPICAN EPITOPES AND USES THEREOF” (MINOMIC INTERNATIONAL LTD., priority 2015, published 2021):
# B1: MIL38-AM4: Murine anti human glypican 1 monoclonal antibody produced by hybridoma cells deposited at Cellbank Australia under accession number CBA20140026 (antibody)
# heavy: QIQLVQSGPELKKPGETVKISCKASGYAFTDYSMNWVKQAPGKGLRWMGWINTETGEPTYTDDFKGRFAFSLETSASTAFLQINNLRNEDTATYFCARHYDYGGFPYWGQGTLVTVSAAKTTPPSVYPLAPGSAAQTNSMVTLGCLVKGYFPEPVTVTWNSGSLSSGVHTFPAVLQSDLYTLSSSVTVPSSTWPSETVTCNVAHPASSTKVDKKIVPRDCGCKPCICTVPEVSSVFIFPPKPKDVLTITLTPKVTCVVVDISKDDPEVQFSWFVDDVEVHTAQTQPREEQFNSTFRSVSELPIMHQDWLNGKEFKCRVNSAAFPAPIEKTISKTKGRPKAPQVYTIPPPKEQMAKDKVSLTCMITDFFPEDITVEWQWNGQPAENYKNTQPIMDTDGSYFVYSKLNVQKSNWEAGNTFTCSVLHEGLHNHHTEKSLSHSPGK
# light: DIQMTQSPASLSASVGETVTITCRASGNVHNYLAWYQQKQGKSPQLLVYTAKTLADGVPSRFSGSGSGTQYSLKINSLQPEDFGTYYCQHFWSNPWTFGGGTKLEIKRADAAPTVSIFPPSSEQLTSGGASVVCFLNNFYPKDINVKWKIDGSERQNGVLNSWTDQDSKDSTYSMSSTLTLTKDEYERHNSYTCEATHKTSTSPIVKSFNRNEC
# System: cells in the urine of prostate cancer patients
# Experiment: MIL38 indirect immunofluorescence assay (IFA) on cells from patient urine
# Format: cell-based, human
# [1] = 125 urine samples: 47 healthy, 37 BPH, 41 prostate cancers
molecule,measurement,setting,value
B1,sensitivity in identifying prostate cancers within the cohort,[1],71%
same,specificity in identifying prostate cancers within the cohort,[1],73%
same,sensitivity in identifying prostate cancers compared to BPH patients,BPH only,71%
same,specificity in identifying prostate cancers compared to BPH patients,BPH only,76%
